Experiments:
Type in all cases: cell-based
A2780 cells = assay: Anti-proliferative activity, A2780 ovarian carcinoma cells; conditions: Homo sapiens, mean ± standard error of three independent experiments
Protocol: One of the most relevant causes of tumor resistance to chemotherapy is the overexpression of membrane pumps which remove the chemotherapeutic agents from the treated cells. To evaluate the effect of the new chemotype on resistant cells, the most representative compounds were tested against A2780 and A2780AD (MDR overexpressing P-glycoprotein) human ovarian carcinomas and the results are collected in Table 2.

MDA-MB-231 cells = assay: Anti-proliferative activity, MDA-MB-231 breast carcinoma cells (Coulter counting); conditions: Homo sapiens, MDA-MB-231, 72 h, read-out: Tumor cells IC50 MDA-MB-231
Description: (§1) The anti-proliferative activity of the synthesized benzofurane derivatives was studied in three human cancer cell lines [breast carcinoma (MDA-MB-231), lymphoblastic leukemia (CEM) and cervical carcinoma (HeLa) cells] and one endothelial cell line [human microvascular endothelial cells (HMEC-1)].
(§2) The human microvascular endothelial cell line HMEC-1 was obtained at passage 12 from the Centers for Disease Control and Prevention (Atlanta, GA, USA) and used from passage 17 till 27. Human breast carcinoma (MDA-MB-231), human cervical carcinoma (HeLa) and human T-lymphoid (CEM) cells were obtained from ATCC (Middlesex, UK). Cell lines were maintained in culture for up to 3 months and grown in DMEM, supplemented with 10% FBS, 0.01 M Hepes and 1 mM sodium pyruvate. All cells were cultured in a humidified 5% CO2 incubator at 37 °C.
(§3) HMEC-1 cells were seeded in 48-well plates at 20,000 cells/well. […] The cells were allowed to proliferate 4 days in the presence of the compounds, trypsinized, and counted by means of a Coulter counter (Analis, Belgium). […] After 3 days of incubation, the cells were trypsinized and counted in a Coulter counter. Suspension cells (human lymphoid Cem cells) were seeded in 96-well plates at 60,000 cells/well in the presence of different concentrations of the compounds, allowed to proliferate for 96 h, and counted in a Coulter counter. […]

HeLa cells = assay: Anti-proliferative activity, HeLa cervical carcinoma cells (Coulter counting); conditions: Homo sapiens, 72 h, read-out: Tumor cells IC50 HeLa
Description: as §1, §2, §3

CEM cells = assay: Anti-proliferative activity, CEM lymphoblastic leukemia cells (Coulter counting); conditions: Homo sapiens, CCRF-CEM, 96 h, read-out: Tumor cells IC50 CEM
Description: as §1, §2, §3

HMEC-1 cells = assay: Anti-proliferative activity, HMEC-1 microvascular endothelial cells (Coulter counting); conditions: Homo sapiens, HMEC-1, 96 h, read-out: Endothelial cells IC50 HMEC-1
Description: as §1, §2, §3

Compound: COc1cc2c(c(OC)c1OC)-c1ccc(OC)c(=O)cc1[C@@H](NC(C)=O)CC2 [Colchicine, reference compound]
- IC50 (A2780 cells): 15 ± 4 nM
- IC50 (MDA-MB-231 cells): 7 ± 3 nM
- IC50 (HeLa cells): 8.7 ± 0.1 nM
- IC50 (CEM cells): 13 ± 0.4 nM
- IC50 (HMEC-1 cells): 3.8 ± 1.1 nM
